# Assay results from PubChem BioAssay AID445 (National Center for Advancing Translational Sciences (NCATS), 2006).
# Values joined by “and” are separate entries in the source; they are usually repeats but may differ in a detail not shown here. Identical values can stand only once. The list shows a part of the results. Shown are side measurements of this screen, not its main read-out; they come without a call. The list favours compounds with an active or inconclusive main result. Potencies come from curve fits of mixed quality, noted in brackets.
# Test: IkB Signaling
# Conditions: ABC-DLBCL IkBa-CBG/CBR dual luciferase ratio (green luciferase fused to IkBa over red control in OCI-Ly3 lymphoma cells), 4 h
# In short: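 Curves were fitted separately to fusion (green), unfused (red) and ratio luminescence, then classed by r2, magnitude and activity. Cells: OCI-Ly3, 4 h compound plus doxycycline at 37C; 10 uM MG-132 defined full response.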
# [1] = measured here: control luc red channel unless noted
# [2] = measured here: IkB-luc green channel
# [3] = measured here: control luc red channel
compound,measurement,setting,value
Cn1c(=O)n(-c2ccc(Br)cc2F)c(=O)c2sc3ccccc3c21,AC50,[1],"25.1 µM [rising, partial curve]"
CCOC(=O)c1ccc(CN(Cc2ccc(F)cc2)S(=O)(=O)c2cc(C(=O)Nc3cccc(C(F)(F)F)c3)ccc2F)cc1,AC50,[1],"7.94 µM [falling, full curve]"
COc1cc2c(=O)c(S(=O)(=O)c3ccc(F)cc3)cn(Cc3ccc(Cl)cc3)c2cc1OC,AC50,[1],"20 µM [falling, partial curve]"
CCCN1C(C(=O)c2ccccc2)=C(OC(=O)COc2ccccc2)c2ccccc2S1(=O)=O,AC50,[1],"10 µM [falling, partial curve]"
CC(=O)c1ccc(NC(=O)c2noc3c2CCc2ccccc2-3)cc1,AC50,[1],"0.631 µM [rising, full curve]"
CCOC(=O)c1[nH]c2ccc(F)cc2c1NC(=O)c1cc(OC)c(OC)c(OC)c1,AC50,[1],"15.8 µM [falling, partial curve]"
O=C(Cn1cnc2c(oc3ccccc32)c1=O)Nc1ccccc1C(F)(F)F,AC50,[1],"0.398 µM [falling, full curve]"
Cc1ccc(-c2nnc(Nc3cccc(Cl)c3)c3ccccc23)cc1S(=O)(=O)N1CCOCC1,AC50,[1],"0.1 µM [falling, full curve]"
Cc1cc(C)c(NC(=O)CSc2nc3ccccc3nc2N2CCCCC2)c(C)c1,AC50,[1],"3.98 µM [falling, full curve, poor fit]"
CCC(C(=O)Nc1cccc(Cl)c1C)n1nc(-c2ccc(C)cc2)ccc1=O (centres undefined),AC50,[1],"15.8 µM [falling, partial curve]"
CCCc1nc2sc3c(N4CCC(C)CC4)ncnc3c2c2c1CCCC2,AC50,[1],"1.26 µM [rising, full curve, poor fit]"
O=C(NCc1cccc(Cl)c1)c1cc2ccc3cccnc3c2[nH]1,AC50,[1],"0.631 µM [rising, full curve]"
CC1CCN(C(=O)Cn2cc(SCC(=O)NCc3ccccc3Cl)c3ccccc32)CC1,AC50,[1],"25.1 µM [falling, single point]"
O=C(C(c1ccccc1)c1ccccc1)N1CCN(CC(O)COc2ccccc2)CC1 (centres undefined),AC50,[1],"15.8 µM [falling, partial curve]"
CNCCCC12CCC(c3ccccc31)c1ccccc12,AC50,[1],"25.1 µM [falling, partial curve]"
CCCN(CCC)CCCNC(=O)C1CCC(CNS(=O)(=O)c2cccc3nsnc23)CC1 (centres undefined),AC50,[1],"39.8 µM [falling, single point]"
Cc1ccc(CN(Cc2ccco2)C(=O)COc2c(C)cc(C)cc2C)cc1,AC50,[1],"25.1 µM [falling, single point]"
Oc1ccc(-c2nc3ccccn3c2Nc2ccc3c(c2)OCCO3)cc1,AC50,[1],"12.6 µM [falling, partial curve]"
COCCNC(=O)CSc1c2c(nc3cc(Cl)ccc13)CCCC2,AC50,[2],"3.98 µM [rising, partial curve]"
same,AC50,[3],"25.1 µM [falling, single point]"
CCCc1nn2c(=O)cc(COC(=O)c3cccc(NC(=O)CCc4ccccc4)c3)nc2s1,AC50,[1],"10 µM [falling, partial curve]"
Cc1cc(C)c2c(c1)-c1c(ssc1=S)C(C)(C)N2C(=O)CSc1nncn1C,AC50,[1],"15.8 µM [falling, partial curve]"
CCOc1ccc(CNC(=O)C2CCN(S(=O)(=O)N3CCCCC3)CC2)cc1,AC50,[1],"0.316 µM [falling, partial curve]"
O=C(OCN1C(=O)c2ccccc2C1=O)c1cccs1,AC50,[1],"1.58 µM [rising, partial curve]"
COc1cccc(C(=O)Nc2cc(-c3cn4cccnc4n3)ccc2C)c1OC,AC50,[1],"12.6 µM [rising, partial curve]"
O=C1Cc2c([nH]c3ccc(Br)cc23)-c2ccccc2N1,AC50,[2],"6.31 µM [falling, full curve]"
same,AC50,[3],"10 µM [falling, full curve, poor fit] and 2 µM [falling, full curve]"
Cc1ccccc1Cn1nc(C)c(NC(=O)c2noc3c2CC(C(C)(C)C)CC3)c1C (centres undefined),AC50,[1],"12.6 µM [falling, partial curve]"
Cc1ccc(OCC(=O)Nc2ccccc2C(=O)OCc2cc(=O)n3nc(C4CC4)sc3n2)cc1,AC50,[1],"12.6 µM [falling, partial curve]"
CC1CCN(C(=O)c2c(NC(=O)c3ccccc3F)sc3c2CCC(C(C)(C)C)C3)CC1 (centres undefined),AC50,[1],"12.6 µM [falling, partial curve]"
CCOc1cc(C2C(C(=O)OC)=C(C)NC3=C2C(=O)c2ccccc23)c(Br)cc1OC (centres undefined),AC50,[1],"31.6 µM [falling, partial curve]"
Nc1nc(-c2ccccc2)nc(-c2ccccc2O)n1,AC50,[1],"15.8 µM [falling, partial curve]"
Cn1c(/N=C/c2c(O)ccc3ccccc23)nc2ccccc21,AC50,[1],"20 µM [falling, partial curve]"
CCn1c(COc2ccc(C)cc2)nnc1SCC(=O)Nc1cc(OC)ccc1OC,AC50,[1],"25.1 µM [falling, partial curve]"
CCCCN(CCCNC(=O)CN1N=C(c2ccccc2)CCC1=O)c1ccccc1,AC50,[1],"25.1 µM [falling, single point]"
CCCCSc1nnc2n(-c3cccc(C)c3)c(=O)c3c4c(sc3n12)CCCC4,AC50,[1],"15.8 µM [falling, partial curve]"
COc1ccc(NC(=O)COCc2cc(-c3ccco3)on2)cc1,AC50,[1],"5.01 µM [rising, full curve, poor fit]"
COc1ccc(NC(=O)CSc2nc3ccccc3[nH]2)cc1,AC50,[1],"12.6 µM [falling, partial curve]"
CCCCC(CC)CNC(=O)CCCc1nnc2n(CCC)c(=O)c3sccc3n12 (centres undefined),AC50,[1],"10 µM [falling, partial curve]"
Cc1cccc(N2CCN(C(=O)c3ccc4c(c3)N(Cc3ccccc3F)C(=O)c3ccccc3S4=O)CC2C)c1 (centres undefined),AC50,[1],"3.98 µM [falling, full curve, poor fit]"
COc1cc2c(=O)c(C(=O)c3ccc(C)c(C)c3)cn(Cc3ccccc3)c2cc1OC,AC50,[1],"25.1 µM [falling, single point]"
COc1ccc(-c2cc3nc(C)c(CCC(=O)N4CCN(c5ccccc5)CC4)c(C)n3n2)c(OC)c1,AC50,[1],"2.51 µM [falling, partial curve]"
Cc1cc(C)c2nc(NC(=O)c3ccc(S(=O)(=O)N4CCCC4)cc3)sc2c1,AC50,[1],"0.158 µM [falling, full curve]"
Cc1nn(C)c(C)c1CNC(=O)c1cc2n(n1)C(C(F)(F)F)CC(c1cccs1)N2 (centres undefined),AC50,[1],"12.6 µM [falling, partial curve]"
Cc1ccc(-c2nnc(N3CCCCC3)c3ccccc23)cc1S(=O)(=O)N1CCN(C)CC1,AC50,[1],"12.6 µM [falling, partial curve]"
COc1ccc(C2CC(=O)c3cnc(NC(=O)c4cc(OC)cc(OC)c4)nc3C2)cc1 (centres undefined),AC50,[1],"0.794 µM [falling, full curve]"
O=C(CSc1nnc(COc2ccc(Cl)cc2)o1)Nc1ccccc1,AC50,[1],"6.31 µM [falling, partial curve]"
COC(=O)c1c(C)oc2ccc(N(C(=O)c3ccncc3)S(=O)(=O)c3cc(C)c(C)cc3C)cc12,AC50,[1],"3.16 µM [falling, full curve]"
COc1ccc(C(CC(=O)Nc2ccc(C)cn2)N2Cc3ccccc3C2=O)cc1OC (centres undefined),AC50,[1],"6.31 µM [rising, partial curve]"
COc1ccc2c(c1)c(CC(=O)N1CCOCC1)c(C)n2C(=O)c1ccc(Cl)cc1,AC50,[1],"39.8 µM [falling, partial curve]"
CCC(CC)C(=O)Nc1nnc(SCC(=O)N2CCN(c3ccccc3OC)CC2)s1,AC50,[1],"31.6 µM [falling, partial curve]"
COc1ccc(-n2nc(C(=O)NCCc3ccc(Cl)cc3)c3c4ccccc4n(C)c3c2=O)cc1Cl,AC50,[1],"3.98 µM [falling, partial curve]"
O=c1c2cn[nH]c2nc(SCc2ccc3c(c2)OCCO3)n1-c1ccccc1,AC50,[2],"20 µM [falling, partial curve]"
same,AC50,[3],"31.6 µM [falling, single point]"
N#C/C(=C\c1ccc(-c2ccccc2C(=O)O)o1)c1nc2ccccc2[nH]1,AC50,[1],"25.1 µM [falling, partial curve]"
COc1cc(C2NC(=O)NC(c3ccccc3)=C2C(C)=O)ccc1OCC(=O)O (centres undefined),AC50,[1],"10 µM [falling, partial curve]"
CCCNS(=O)(=O)c1ccc(CCC(=O)N2CCCCC2)cc1,AC50,[1],"25.1 µM [falling, single point]"
CCc1noc(-c2ccc(NC(C)c3ccccc3)c([N+](=O)[O-])c2)n1 (centres undefined),AC50,[1],"0.1 µM [rising, full curve]"
CCN(CC)C(=O)C1=C(C)Nc2nc3ccccc3n2C1c1ccc(Br)cc1 (centres undefined),AC50,[1],"15.8 µM [falling, single point]"
CC(=O)c1cccc(NC(=O)CCS(=O)(=O)c2cc3c(cc2C)NC(=O)CO3)c1,AC50,[1],"12.6 µM [falling, partial curve]"
Cc1ccc(CNC(=O)C2c3ccccc3C(=O)N(C)C2c2c[nH]c3ccccc23)o1 (centres undefined),AC50,[1],"10 µM [falling, partial curve]"
CN(C)S(=O)(=O)n1cc(/C=C(\NC(=O)c2ccccc2F)C(=O)NCCCn2ccnc2)c2ccccc21,AC50,[1],"20 µM [falling, single point]"
Cc1ccccc1CN1CCC(CNc2ncnc3onc(-c4ccc(Cl)cc4)c23)CC1,AC50,[1],"31.6 µM [falling, single point]"
Cc1nc2sccn2c1-c1nc(-c2cc3ccccc3o2)cs1,AC50,[1],"39.8 µM [falling, single point]"
